Laboratory results as given in article PMC12485051.

By UniProt entry, the sequences of proteins in these tests, tags left out. Residues count along the entry.
UniProt P29460, residues 23-328: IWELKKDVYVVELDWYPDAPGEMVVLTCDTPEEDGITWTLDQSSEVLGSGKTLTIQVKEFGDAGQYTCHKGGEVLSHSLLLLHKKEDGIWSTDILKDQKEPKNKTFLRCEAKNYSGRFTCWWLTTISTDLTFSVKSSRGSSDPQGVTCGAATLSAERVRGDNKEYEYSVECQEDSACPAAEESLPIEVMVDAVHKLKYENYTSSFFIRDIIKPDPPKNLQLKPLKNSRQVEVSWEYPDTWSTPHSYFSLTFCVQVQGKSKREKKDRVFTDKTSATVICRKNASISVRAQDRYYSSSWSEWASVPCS

Assays:
[1] = molecular target: A. aeolicus BioID2 biotin ligase mutant tagged with the protein C epitope (BioID2_(ProtC)) (A. aeolicus) (UniProt O66837); test: proximity labelling; BioID2 proximity-dependent biotinylation in co-transfected HEK-293T cells, biotin 50 µM for the last 18 h; p40_(FLAG) immunoprecipitated from the supernatant with anti-FLAG affinity gel and probed with streptavidin
[2] = molecular target: T1, BioID2-CLCF1_(ProtC) fusion protein (human) (UniProt Q9UBD9); test: as above
T1 sequence: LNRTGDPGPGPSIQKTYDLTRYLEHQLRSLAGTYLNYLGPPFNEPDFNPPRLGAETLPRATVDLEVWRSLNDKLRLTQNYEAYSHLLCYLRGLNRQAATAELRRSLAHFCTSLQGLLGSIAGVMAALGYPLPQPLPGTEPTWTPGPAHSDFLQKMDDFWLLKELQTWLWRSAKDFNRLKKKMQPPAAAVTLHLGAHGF

binding [1]: no binding | binding [2]: binds
Substance: human p40 tagged with the FLAG epitope (p40_(FLAG)) (from UniProt P29460 23-328)

No constants are given. Whether binding was seen depends on the method and setting. Binding seen in cells or lysates may run through a third protein. These calls come from enrichment with a bait or labelling near it, and not all partners need be listed. For some assays here: A no says only that the protein was not detected with the bait. For some assays here: Tags and fused reporters may be left off the sequences shown.
